Results are given in words; binding and its absence hold for the method and conditions named. For some assays here: Binding can be weak; no strength is given. For some assays here: Where a sequence is shown, tags or fusion partners need not be part of it.
Tests used:
[1] = molecular target: Spen like protein, At1g27750 (Arabidopsis thaliana); assay: GS-TAP purification, bait SL
[2] = molecular target: Spen like protein, At1g27750 (Arabidopsis thaliana); assay: yeast two-hybrid, pDEST22 HUB1 against pDEST32 SL
[3] = molecular target: Spen like protein, At1g27750 (Arabidopsis thaliana); assay: yeast two-hybrid
[4] = molecular target: Spen like protein, At1g27750 (Arabidopsis thaliana); assay: TAP, bait SL
[5] = molecular target: Spen like protein, At1g27750 (Arabidopsis thaliana); assay: yeast two-hybrid, pDEST22 HUB1 no RING against pDEST32 SL

Row | Binder | binding [1] | binding [2] | binding [3] | binding [4] | binding [5]
1 | HUB1 (Histone Monoubiquitination 1), At2g44950, Arabidopsis thaliana (enzyme, Full length HUB1; In the TAP experiments N-terminally fused to the TAP tag or the GS-TAP tag; in yeast two-hybrid fused to AD (pDEST22) or BD (pDEST32); all these constructs are written under this one entry; also called HUB1fl; full length HUB1) MASTGEPDRKRRHFSSISPSEAAAAVKKQPFFWPSSEDKLDTAVLQFQNLKLSQKLEAQQVECSILEDKLSQIKEKQLPYNSSLKTVHKSWEKLTASVESCSVRVSDSSSGAHRFVNKEDGSSPAVKNDFINRLLETGATESSSSNICSNQMEENGVNTSSQMTQTLYNLVAATEDLRCLKDELYPTVLRTNLGKDLCGQLALSELESEIKSFRGDLDDVLVKFKSLSRELQSHRDADAKVRVDLKRIRGELEDEVVELQQCNGDLSALRAERDATAGAFFPVLSLGNKLATSDRERDKQRDLQDMETVLKELTVLASGRLQQLKNLHEERTKMLGKMSNLQNKSKSVRCISSSQACLSLKDQLEKSKEAVFQYMALLEKLQVEKDSIVWKEREINIKNELGDVSRKTSAVTDSRMASLDSEIQKQLDEKMRIKTRLGNISRERGRKEIFADMKALISSFPEEMSSMRSQLNNYKETAGGIHSLRADVQSLSGVLCRKTKEYEALQLRSADYASQLGDLNATVCDLKNSHEELKLFLDMYKRESTDARDIAEAKEQEYRAWAHVQSLKSSLDEQNLELRVKAANEAEAVSQQMLAAAEAEIADLRQKMDDCKRDVAKHSDILKSKHEEHGTYLSEIQTIGSAYEDIVPQNQRLLLQVTERDDYNIKLFLEGITSRQMQDTLLIDKYIMDKDIQQGSAYASFLSKKSSRIEDQLRFCTDQFQKLAEDKYQKSVSLENLQKKRADIGNGLEQARSRLEESHSKVEQSRLDYGALELELEIERFNRRRIEEEMEIAKKKVSRLRSLIEGSSAIQKLRQELSEFKEILKCKACNDRPKEVVITKCYHLFCNPCVQKLTGTRQKKCPTCSASFGPNDIKPIYI | binds | binds | binds | binds | 
2 | HUB1 no RING (enzyme) MASTGEPDRKRRHFSSISPSEAAAAVKKQPFFWPSSEDKLDTAVLQFQNLKLSQKLEAQQVECSILEDKLSQIKEKQLPYNSSLKTVHKSWEKLTASVESCSVRVSDSSSGAHRFVNKEDGSSPAVKNDFINRLLETGATESSSSNICSNQMEENGVNTSSQMTQTLYNLVAATEDLRCLKDELYPTVLRTNLGKDLCGQLALSELESEIKSFRGDLDDVLVKFKSLSRELQSHRDADAKVRVDLKRIRGELEDEVVELQQCNGDLSALRAERDATAGAFFPVLSLGNKLATSDRERDKQRDLQDMETVLKELTVLASGRLQQLKNLHEERTKMLGKMSNLQNKSKSVRCISSSQACLSLKDQLEKSKEAVFQYMALLEKLQVEKDSIVWKEREINIKNELGDVSRKTSAVTDSRMASLDSEIQKQLDEKMRIKTRLGNISRERGRKEIFADMKALISSFPEEMSSMRSQLNNYKETAGGIHSLRADVQSLSGVLCRKTKEYEALQLRSADYASQLGDLNATVCDLKNSHEELKLFLDMYKRESTDARDIAEAKEQEYRAWAHVQSLKSSLDEQNLELRVKAANEAEAVSQQMLAAAEAEIADLRQKMDDCKRDVAKHSDILKSKHEEHGTYLSEIQTIGSAYEDIVPQNQRLLLQVTERDDYNIKLFLEGITSRQMQDTLLIDKYIMDKDIQQGSAYASFLSKKSSRIEDQLRFCTDQFQKLAEDKYQKSVSLENLQKKRADIGNGLEQARSRLEESHSKVEQSRLDYGALELELEIERFNRRRIEEEMEIAKKKVSRLRSLIEGSSAIQKLRQELSEFKEILK |  |  |  |  | no binding
